PubChem BioAssay AID1259424 – University of Nebraska Medical Center – 2018

Aim: 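Rank knockdowns across the genome by resemblance to the KSR1 depletion profile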 (primary screen)
Cell system: human HCT116 colon cancer cells
Reagents: siRNA pool against human genes, 50 nM
Detection: 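Log2 levels of six mRNAs (branched-DNA multiplex), adjusted by two reference genes and the non-targeting median, then scored against the average KSR1 knockdown pattern as Pearson r and euclidean distance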
Direction: mean correlation with KSR1 profile and KSR1 correlation: higher = expression change more like KSR1 knockdown; mean distance from KSR1 profile: higher = expression change less like KSR1 knockdown
In all, the deposit lists about 14,000 reagents; this is an unselected part. 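Higher correlation or smaller distance means closer resemblance to KSR1 loss; control wells, including KSR1 knockdowns, recur on many plates.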 Not given: the time to read-out.

no.	gene	mean correlation with KSR1 profile	mean distance from KSR1 profile	KSR1 correlation, replicate 1	KSR1 correlation, replicate 2	KSR1 correlation, replicate 3
1	GRID2 (glutamate ionotropic receptor delta type subunit 2)	-0.649	1.87	-0.83	-0.596	-0.516
2	SBNO2 (strawberry notch homolog 2)	0.413	1.72	0.381	0.212	0.499
3	LSM10 (LSM10, U7 small nuclear RNA associated)	0.488	2.33	0.426	0.389	0.377
4	LGR5 (leucine rich repeat containing G protein-coupled receptor 5)	0.885	0.757	0.703	0.88	0.906
5	ARID4A (AT-rich interaction domain 4A)	0.627	0.896	0.717	0.51	-0.377
6	PACS2 (phosphofurin acidic cluster sorting protein 2)	0.0581	1.49	-0.178	0.184	0.0424
7	PCDHB14 (protocadherin beta 14)	0.575	1.25	0.368	0.238	0.558
8	CRBN (cereblon)	-0.218	1.83	0.0336	-0.0944	-0.221
9	RAMAC (RNA guanine-7 methyltransferase activating subunit)	0.46	1.29	0.121	0.13	0.623
10	DCHS1 (dachsous cadherin-related 1)	0.445	1.36	0.478	0.523	0.199
11	ST7 (suppression of tumorigenicity 7)	0.312	2.47	0.208	0.395	0.342
12	CR2 (complement C3d receptor 2)	0.186	1.29	0.451	0.0688	0.22
13	BTG1 (BTG anti-proliferation factor 1)	0.592	1.68	0.674	0.77	0.346
14	PPP1R8 (protein phosphatase 1 regulatory subunit 8)	-0.753	1.75	-0.644	-0.799	-0.688
15	LCT (lactase)	-0.0426	2	-0.366	0.221	-0.0638
16	ZNF236 (zinc finger protein 236)	-0.451	2.58	-0.591	-0.426	-0.236
17	SPOP (speckle type BTB/POZ protein)	-0.292	3.84	-0.0988	-0.379	-0.378
18	RAPSN (receptor associated protein of the synapse)	0.19	2.57	0.141	0.173	0.1
19	ATG5 (autophagy related 5)	-0.111	1.87	-0.185	-0.154	-0.212
20	RIN3 (Ras and Rab interactor 3)	0.275	2.25	0.288	0.349	0.227

Quoted from the listing, 2 entries:
no.	gene	mean correlation with KSR1 profile	mean distance from KSR1 profile	KSR1 correlation, replicate 1	KSR1 correlation, replicate 2	KSR1 correlation, replicate 3
13	BTG1 (BTG anti-proliferation factor 1)	0.592	1.68	0.674	0.77	0.346
14	PPP1R8 (protein phosphatase 1 regulatory subunit 8)	-0.753	1.75	-0.644	-0.799	-0.688
